Article PMC10397291, “Molecular pathway and structural mechanism of human oncochannel TRPV6 inhibition by the phytocannabinoid tetrahydrocannabivarin” (Nature Communications, 2023)
Residue numbers refer to the chain shown, from its start. Where “and” joins values, the source holds several entries; their conditions need not be identical. Equal values may be shown once. The source gives many values for each of these; only a part stands here.

What was measured:
Assay type in all cases: cell-based
[1] = biological target: T1, wild-type human TRPV6 (Homo sapiens, UniProt Q9H1D0); experiment: Fura-2 AM Ca2+ uptake, HEK 293 cells expressing wild-type hTRPV6; conditions: replicates
T1 construct: Full-length wild-type or mutant human TRPV6 was expressed in HEK 293S cells as described above; expressed in transfected cells; host or cells: HEK 293S GnTI- (baculovirus/BacMam transduction)
T1 sequence (Q9H1D0 41-765 limits assumed): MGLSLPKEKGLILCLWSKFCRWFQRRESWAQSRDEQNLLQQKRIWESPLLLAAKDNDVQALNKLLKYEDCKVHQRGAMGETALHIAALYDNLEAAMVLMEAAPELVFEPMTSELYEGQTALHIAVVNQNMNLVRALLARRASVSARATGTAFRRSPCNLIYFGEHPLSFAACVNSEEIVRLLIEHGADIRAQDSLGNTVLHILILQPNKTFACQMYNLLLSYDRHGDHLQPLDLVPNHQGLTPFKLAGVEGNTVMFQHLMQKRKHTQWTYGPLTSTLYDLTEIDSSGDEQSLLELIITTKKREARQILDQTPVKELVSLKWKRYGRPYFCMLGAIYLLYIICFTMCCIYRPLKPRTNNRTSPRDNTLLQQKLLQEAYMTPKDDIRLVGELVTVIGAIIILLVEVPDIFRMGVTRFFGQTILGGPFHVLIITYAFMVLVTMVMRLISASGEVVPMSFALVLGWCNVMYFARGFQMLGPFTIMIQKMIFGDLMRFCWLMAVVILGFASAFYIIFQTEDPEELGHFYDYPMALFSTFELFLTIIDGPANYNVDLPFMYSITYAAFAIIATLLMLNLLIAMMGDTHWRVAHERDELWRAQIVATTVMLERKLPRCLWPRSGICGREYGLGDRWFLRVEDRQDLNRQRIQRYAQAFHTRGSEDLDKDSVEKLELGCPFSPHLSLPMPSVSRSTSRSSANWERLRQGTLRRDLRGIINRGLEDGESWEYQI

[2] = biological target: T2, F493A mutant hTRPV6 (Homo sapiens, UniProt Q9H1D0, F533A); experiment: Fura-2 AM Ca2+ uptake, F493A mutant hTRPV6; conditions: replicates
T2 construct: Full-length wild-type or mutant human TRPV6 was expressed in HEK 293S cells as described above; expressed in transfected cells; host or cells: HEK 293S GnTI- (baculovirus/BacMam transduction)
T2 sequence (Q9H1D0 41-765 F533A limits assumed): T1 sequence (Q9H1D0 41-765 limits assumed) with F493A

[3] = biological target: T3, L568Q mutant hTRPV6 (Homo sapiens, UniProt Q9H1D0, L608Q); experiment: Fura-2 AM Ca2+ uptake, L568Q mutant hTRPV6; conditions: replicates
T3 construct: Full-length wild-type or mutant human TRPV6 was expressed in HEK 293S cells as described above; expressed in transfected cells; host or cells: HEK 293S GnTI- (baculovirus/BacMam transduction)
T3 sequence (Q9H1D0 41-765 L608Q limits assumed): T1 sequence (Q9H1D0 41-765 limits assumed) with L568Q

[4] = tested on: non-transfected HEK293 cells; experiment: Fura-2 AM measurements in non-transfected cells (Control, non-specific effects)

CCCc1cc(O)c2c(c1)OC(C)(C)[C@@H]1CCC(C)=C[C@@H]21 [THCV, tetrahydrocannabivarin]
change in F340/F380 evoked by 10 mM Ca2+ ([1]; 1 μM THCV): 1.268 and 1.152 and 1.011 and 1.118 and 1.346 and 1.255 and 1.073 and 1.022 | change in F340/F380 evoked by 10 mM Ca2+ ([1]; 3 μM THCV): 1.088 and 0.960 and 1.092 and 0.943 and 1.007 and 0.968 and 1.270 and 1.029 | change in F340/F380 evoked by 10 mM Ca2+ ([1]; 10 μM THCV): 0.920 and 0.921 and 0.747 and 0.702 and 0.644 and 0.633 and 0.626 and 0.483 | change in F340/F380 evoked by 10 mM Ca2+ ([1]; 30 μM THCV): 0.494 and 0.873 and 0.771 (2×) and 0.583 and 0.499 and 0.373 and 0.425 | change in F340/F380 evoked by 10 mM Ca2+ ([1]; 100 μM THCV): 0.518 and 0.516 and 0.542 and 0.454 and 0.618 and 0.579 and 0.676 and 0.612 | change in F340/F380 evoked by 10 mM Ca2+ ([2]; 1 μM THCV): 1.137 and 1.068 and 1.041 and 0.965 | change in F340/F380 evoked by 10 mM Ca2+ ([2]; 3 μM THCV): 0.516 and 0.865 and 0.862 and 0.894 | change in F340/F380 evoked by 10 mM Ca2+ ([2]; 10 μM THCV): 0.475 and 0.356 and 0.375 and 0.486 | change in F340/F380 evoked by 10 mM Ca2+ ([2]; 30 μM THCV): 0.382 and 0.386 and 0.353 and 0.348 | change in F340/F380 evoked by 10 mM Ca2+ ([2]; 100 μM THCV): 0.567 and 0.665 and 0.648 and 0.644 | change in F340/F380 evoked by 10 mM Ca2+ ([3]; 1 μM THCV): 1.262 and 1.194 and 1.190 and 1.061 | change in F340/F380 evoked by 10 mM Ca2+ ([3]; 3 μM THCV): 1.268 and 1.078 and 1.208 and 1.198 | change in F340/F380 evoked by 10 mM Ca2+ ([3]; 10 μM THCV): 1.100 and 1.052 and 0.968 and 0.899 | change in F340/F380 evoked by 10 mM Ca2+ ([3]; 30 μM THCV): 0.830 and 1.001 and 0.924 and 0.918 | change in F340/F380 evoked by 10 mM Ca2+ ([3]; 100 μM THCV): 0.622 and 0.538 and 0.588 and 0.590 | change in F340/F380 evoked by 10 mM Ca2+ ([4]; 1 μM THCV, non-transfected Control for F493A): 0.177 and 0.148 and 0.173 and 0.180 | change in F340/F380 evoked by 10 mM Ca2+ ([4]; 1 μM THCV, non-transfected Control for I564A): 0.142 and 0.121 and 0.188 and 0.131 | change in F340/F380 evoked by 10 mM Ca2+ ([4]; 1 μM THCV, non-transfected Control for M497A): 0.253 and 0.181 and 0.151 and 0.184 | change in F340/F380 evoked by 10 mM Ca2+ ([4]; 1 μM THCV, non-transfected Control for T567A): 0.212 and 0.210 and 0.218 and 0.248 | change in F340/F380 evoked by 10 mM Ca2+ ([4]; 3 μM THCV, non-transfected Control for F493A): 0.206 and 0.180 and 0.160 and 0.193 | change in F340/F380 evoked by 10 mM Ca2+ ([4]; 3 μM THCV, non-transfected Control for I564A): 0.120 and 0.123 and 0.142 and 0.146 | change in F340/F380 evoked by 10 mM Ca2+ ([4]; 3 μM THCV, non-transfected Control for M497A): 0.184 and 0.186 and 0.156 and 0.161 | change in F340/F380 evoked by 10 mM Ca2+ ([4]; 3 μM THCV, non-transfected Control for T567A): 0.182 and 0.253 and 0.199 and 0.236 | change in F340/F380 evoked by 10 mM Ca2+ ([4]; 10 μM THCV, non-transfected Control for F493A): 0.198 and 0.159 and 0.176 and 0.141 | change in F340/F380 evoked by 10 mM Ca2+ ([4]; 10 μM THCV, non-transfected Control for I564A): 0.116 and 0.124 and 0.114 and 0.113 | change in F340/F380 evoked by 10 mM Ca2+ ([4]; 10 μM THCV, non-transfected Control for M497A): 0.192 and 0.201 and 0.174 and 0.162 | change in F340/F380 evoked by 10 mM Ca2+ ([4]; 10 μM THCV, non-transfected Control for T567A): 0.167 and 0.205 and 0.218 and 0.162 | change in F340/F380 evoked by 10 mM Ca2+ ([4]; 30 μM THCV, non-transfected Control for F493A): 0.166 and 0.168 and 0.155 and 0.158 | change in F340/F380 evoked by 10 mM Ca2+ ([4]; 30 μM THCV, non-transfected Control for I564A): 0.119 and 0.146 and 0.122 | change in F340/F380 evoked by 10 mM Ca2+ ([4]; 30 μM THCV, non-transfected Control for M497A): 0.158 and 0.138 and 0.186 and 0.188 | change in F340/F380 evoked by 10 mM Ca2+ ([4]; 30 μM THCV, non-transfected Control for T567A): 0.196 and 0.203 and 0.177 and 0.230 | change in F340/F380 evoked by 10 mM Ca2+ ([4]; 100 μM THCV, non-transfected Control for A561W): 0.418 and 0.377 and 0.384 | change in F340/F380 evoked by 10 mM Ca2+ ([4]; 100 μM THCV, non-transfected Control for F493A): 0.445 and 0.433 and 0.368 and 0.380 | change in F340/F380 evoked by 10 mM Ca2+ ([4]; 100 μM THCV, non-transfected Control for I564A): 0.398 and 0.435 and 0.361 and 0.357 | change in F340/F380 evoked by 10 mM Ca2+ ([4]; 100 μM THCV, non-transfected Control for M497A): 0.411 and 0.568 and 0.505 and 0.392 | change in F340/F380 evoked by 10 mM Ca2+ ([4]; 100 μM THCV, non-transfected Control for T567A): 0.389 and 0.553 and 0.539 and 0.430
